# The list shows a part of the results.
# B1: DC-Sign-R (Homo sapiens), Q9H2X3 (protein)
# chain: MSDSKEPRVQQLGLLEEDPTTSGIRLFPRDFQFQQIHGHKSSTGCLGHGALVLQLLSFMLLAGVLVAILVQVSKVPSSLSQEQSEQDAIYQNLTQLKAAVGELSEKSKLQEIYQELTQLKAAVGELPEKSKLQEIYQELTRLKAAVGELPEKSKLQEIYQELTRLKAAVGELPEKSKLQEIYQELTRLKAAVGELPEKSKLQEIYQELTELKAAVGELPEKSKLQEIYQELTQLKAAVGELPDQSKQQQIYQELTDLKTAFERLCRHCPKDWTFFQGNCYFMSNSQRNWHDSVTACQEVRAQLVVIKTAEEQNFLQLQTSRSNRFSWMGLSDLNQEGTWQWVDGSPLSPSFQRYWNSGEPNNSGNEDCAEFSGSGWNDNRCDVDNYWICKKPAACFRDE
# Legend:
# Assay in all cases: glycan array binding signal (z-score within array); higher = stronger binding
# Details in all cases: glycan notation: IUPAC condensed, linker removed
# [1] = target: Fuc(a1-2)[GalNAc(b1-3)]Gal
# How it was run: (§1)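 The binding signal is a Z-score computed within each array. Data were drawn from 3228 arrays in the Consortium for Functional Glycomics database, restricted to those with a known protein sequence. Scores were averaged over arrays of the same protein sequence at different concentrations or buffers, and over linkers, and negative values can be taken as non-binding.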
# [2] = target: Fuc(a1-3)GlcNAc
# How it was run: as §1
# [3] = target: Fuc(a1-3)[Gal(b1-4)]Glc6S
# How it was run: as §1
# [4] = target: Fuc(a1-3)[Gal(b1-4)]GlcNAc
# How it was run: as §1
# [5] = target: Fuc(a1-3)[Gal(b1-4)]GlcNAc(b1-2)Man
# How it was run: as §1
# [6] = target: Fuc(a1-3)[Gal(b1-4)]GlcNAc(b1-2)Man(a1-3)[Fuc(a1-3)[Gal(b1-4)]GlcNAc(b1-2)Man(a1-6)]Man(b1-4)GlcNAc(b1-4)GlcNAc
# How it was run: as §1
# [7] = target: Fuc(a1-3)[Gal(b1-4)]GlcNAc(b1-2)Man(a1-3)[Fuc(a1-3)[Gal(b1-4)]GlcNAc(b1-2)Man(a1-6)]Man(b1-4)GlcNAc(b1-4)[Fuc(a1-6)]GlcNAc
# How it was run: as §1
# [8] = target: Fuc(a1-3)[Gal(b1-4)]GlcNAc(b1-3)Gal(b1-3)[Fuc(a1-4)]GlcNAc
# How it was run: as §1
# [9] = target: Fuc(a1-3)[Gal(b1-4)]GlcNAc(b1-3)Gal(b1-4)[Fuc(a1-3)]GlcNAc
# How it was run: as §1
# [10] = target: Fuc(a1-3)[Gal(b1-4)]GlcNAc(b1-3)Gal(b1-4)[Fuc(a1-3)]GlcNAc(b1-3)Gal(b1-4)[Fuc(a1-3)]GlcNAc
# How it was run: as §1
# [11] = target: Fuc(a1-3)[Gal(b1-4)]GlcNAc(b1-3)GalNAc
# How it was run: as §1
# [12] = target: Fuc(a1-3)[Gal(b1-4)]GlcNAc(b1-6)GalNAc
# How it was run: as §1
# [13] = target: Fuc(a1-3)[Gal(b1-4)]GlcNAc(b1-6)[Gal(b1-3)GlcNAc(b1-3)]Gal(b1-4)Glc
# How it was run: as §1
# [14] = target: Fuc(a1-3)[Gal(b1-4)]GlcNAc6S
# How it was run: as §1
# [15] = target: Fuc(a1-3)[Gal3S(b1-4)]Glc
# How it was run: as §1
# [16] = target: Fuc(a1-3)[Gal3S(b1-4)]GlcNAc
# How it was run: as §1
# [17] = target: Fuc(a1-3)[Gal3S(b1-4)]GlcNAc6S
# How it was run: as §1
# [18] = target: Fuc(a1-3)[GalNAc(b1-4)]GlcNAc
# How it was run: as §1
# [19] = target: Fuc(a1-3)[GalNAc(b1-4)]GlcNAc6S
# How it was run: as §1
# [20] = target: Fuc(a1-4)GlcNAc
# How it was run: as §1
# [21] = target: Fuc(b1-3)GlcNAc
# How it was run: as §1
# [22] = target: Gal(a1-2)Gal
# How it was run: as §1
# [23] = target: Gal(a1-3)Gal
# How it was run: as §1
# [24] = target: Gal(a1-3)Gal(b1-3)GlcNAc
# How it was run: as §1
# [25] = target: Gal(a1-3)Gal(b1-3)GlcNAc(b1-2)Man
# How it was run: as §1
# [26] = target: Gal(a1-3)Gal(b1-3)GlcNAc(b1-2)Man(a1-3)[Gal(a1-3)Gal(b1-3)GlcNAc(b1-2)Man(a1-6)]Man(b1-4)GlcNAc(b1-4)GlcNAc
# How it was run: as §1
# [27] = target: Gal(a1-3)Gal(b1-3)GlcNAc(b1-3)GalNAc
# How it was run: as §1
# [28] = target: Gal(a1-3)Gal(b1-3)GlcNAc(b1-6)GalNAc
# How it was run: as §1
# [29] = target: Gal(a1-3)Gal(b1-3)[Fuc(a1-4)]GlcNAc(b1-2)Man(a1-3)[Gal(a1-3)Gal(b1-3)[Fuc(a1-4)]GlcNAc(b1-2)Man(a1-6)]Man(b1-4)GlcNAc(b1-4)GlcNAc
# How it was run: as §1
# [30] = target: Gal(a1-3)Gal(b1-4)Glc
# How it was run: as §1
binder,measurement,setting,value
B1,glycan array binding signal (z-score),[1],-0.639
same,glycan array binding signal (z-score),[2],0.271
same,glycan array binding signal (z-score),[3],0.425
same,glycan array binding signal (z-score),[4],-0.379
same,glycan array binding signal (z-score),[5],1.67
same,glycan array binding signal (z-score),[6],0.284
same,glycan array binding signal (z-score),[7],-0.812
same,glycan array binding signal (z-score),[8],0.843
same,glycan array binding signal (z-score),[9],-0.092
same,glycan array binding signal (z-score),[10],-0.384
same,glycan array binding signal (z-score),[11],2.27
same,glycan array binding signal (z-score),[12],1.07
same,glycan array binding signal (z-score),[13],-0.804
same,glycan array binding signal (z-score),[14],1.05
same,glycan array binding signal (z-score),[15],0.062
same,glycan array binding signal (z-score),[16],0.105
same,glycan array binding signal (z-score),[17],-0.375
same,glycan array binding signal (z-score),[18],0.243
same,glycan array binding signal (z-score),[19],0.11
same,glycan array binding signal (z-score),[20],-0.26
same,glycan array binding signal (z-score),[21],-0.411
same,glycan array binding signal (z-score),[22],-0.279
same,glycan array binding signal (z-score),[23],-0.907
same,glycan array binding signal (z-score),[24],1.29
same,glycan array binding signal (z-score),[25],-0.789
same,glycan array binding signal (z-score),[26],-0.669
same,glycan array binding signal (z-score),[27],0.273
same,glycan array binding signal (z-score),[28],-0.383
same,glycan array binding signal (z-score),[29],-0.719
same,glycan array binding signal (z-score),[30],-0.655

# 2 entries from above, with bars between the fields.
binder | measurement | setting | value
B1 | glycan array binding signal (z-score) | [13] | -0.804
same | glycan array binding signal (z-score) | [14] | 1.05
